# Experimental data as given in paper PMC2721980.
# Protein sequences, listed by entry. Tags and fused reporters are not part of them.
# UniProt P35222: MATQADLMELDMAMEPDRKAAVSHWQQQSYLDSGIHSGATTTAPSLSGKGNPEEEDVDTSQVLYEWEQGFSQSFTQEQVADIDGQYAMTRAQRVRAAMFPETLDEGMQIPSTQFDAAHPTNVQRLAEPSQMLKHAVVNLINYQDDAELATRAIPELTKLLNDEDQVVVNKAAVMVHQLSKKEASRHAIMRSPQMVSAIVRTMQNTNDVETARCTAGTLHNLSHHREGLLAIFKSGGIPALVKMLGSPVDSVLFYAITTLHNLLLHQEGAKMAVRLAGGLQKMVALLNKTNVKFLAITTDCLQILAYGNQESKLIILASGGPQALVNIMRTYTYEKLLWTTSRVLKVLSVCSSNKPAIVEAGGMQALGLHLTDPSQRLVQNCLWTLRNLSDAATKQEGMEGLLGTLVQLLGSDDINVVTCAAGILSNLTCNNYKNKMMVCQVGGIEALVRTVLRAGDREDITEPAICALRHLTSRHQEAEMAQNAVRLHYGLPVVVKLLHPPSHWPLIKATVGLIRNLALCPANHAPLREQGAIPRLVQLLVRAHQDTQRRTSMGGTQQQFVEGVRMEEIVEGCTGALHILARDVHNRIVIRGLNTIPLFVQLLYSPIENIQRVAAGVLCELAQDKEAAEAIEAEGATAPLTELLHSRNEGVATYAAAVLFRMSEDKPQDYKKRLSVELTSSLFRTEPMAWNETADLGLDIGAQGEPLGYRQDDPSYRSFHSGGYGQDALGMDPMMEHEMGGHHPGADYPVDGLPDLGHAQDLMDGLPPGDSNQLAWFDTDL
# No constants are given. Whether binding was seen depends on the method and setting. Some results given as binding are weak or reduced against the parent protein; the word gives no strength.
# Molecular target: pBIND-β-catenin (UniProt P35222)
# Assay: two-hybrid; mammalian two-hybrid in HEK293T: pACT-JNK2, pBind-β-catenin and pG5luc co-transfected, dual luciferase read-out after 48 h; empty pACT and pBind as negative controls
substance,measurement,value
pACT-JNK2 (from UniProt P45984 1-424),binding,binds
